According to article PMC12384620, “Hit-to-Lead Studies of Pyrazinylpiperazines against Visceral Leishmaniasis: Pharmacokinetic Profile and In Vivo Efficacy of Potent Compounds against Leishmania infantum” (ACS Pharmacology & Translational Science, 2025):

Experiment: PAMPA gastrointestinal tract permeability
Assay type: in vitro ADME
Conditions: 8 h, 0.5 mM
Procedure: A 10 mM solution of each compound in DMSO was prepared and subsequently homogenized in a 5 mL flask with 4.75 mL PBS (pH 6.6) (10 mM). […] 180 μL of a PBS (pH 7.4)/DMSO (95:5) solution were then added to the wells of a 96-well receiver plate, and 5 μL of a L-α-phosphatidylcholine solution (20 mg/mL in dodecane) to the wells of a 96-well donor plate. After 5 min, 180 μL of the solutions containing each compound were added to the wells of the donor plate, in triplicate, and the donor plate was carefully placed over the receiver plate in a “sandwich-like” system, which was left stirring (50 rpm) for 8 h at rt in a sealed vessel containing 10 mL PBS (pH 7.4). Afterward, the donor plate was removed, and the content of the receiver plate was transferred to a UV reading plate, which was read using a microplate reader (SpectraMax 5 – Molecular Devices). A reference sample for the internal correction of the microplate reader was prepared using 180 μL of the PBS (pH 7.4)/DMSO (95:5) solution (adapted from refs and ). The optical density values obtained from the content of the receiver plate were compared with the ones obtained from readings performed with the initial solutions containing each compound, before their addition to the donor plate. […]

CC(C)NCC(O)COc1ccc(CC(N)=O)cc1 (stereo not shown) [Atenolol, reference compound]
GI Pe: 0.09 10^-6 cm/s
